No constants are given. Whether binding was seen depends on the method and setting. Binding can be weak; no strength is given. For some assays here: In cells and extracts the contact can be indirect. For some assays here: Tags and fused reporters may be left off the sequences shown. Values belong to the binder of their own block, whether it stands above or below them.
Columns and labels:
[1] = molecular target: GST-dCYLD (Drosophila melanogaster); assay: pull-down; agarose-immobilised GST-dCYLD incubated with total cell lysate of S2 cells transfected with Flag-RBR-C; immunoblot with anti-Flag antibody; only the target purified
[2] = molecular target: GST-dCYLD (Drosophila melanogaster); assay: pull-down; immobilised GST-dCYLD incubated with LUBEL-RBR-C purified from E. coli (500 ng of candidate protein, 50 mM Tris-HCl pH 7.5, 150 mM NaCl, 0.1% NP-40, 5 mM DTT, 4°C, 3 h); immunoblot with anti-LUBEL-RBR antibody; both purified

- binding [1]: binds
B1: Flag-LUBEL-RBR-C (domain or fragment, UniProt Q8IPJ3-1 2512-2892)
chain: QECELCMNSYPMNQMVSMLKCLHKCCKQCAKSYFTVQITDRSINDCSCPFCKLPELSNEAQHEDEHLEYFSNLDIFLKSILDNDVHELFQRKLRDRSLLQDPNFKWCIQCSSGFFARPKQKRLICPDCGSVTCAQCRKPWERQHEGSSCEAYLEWKRENDPELQAQGVQEHLAQNGIDCPKCKFRYSLARGGCMHFTCTQCKFEFCYGCARPFMMGAKCTVSTYCAKLGLHAHHPRNCLFYLRDKIPLQLQFLLKEQNVKFDTEPMQIKDESSSSSKARAQARCPIPLQKETPQGLVDTVCNTEVPDKHAGMCRTHYVEYLAGKVAKAGIDPLPIFDLTDCVQELRRRGIALPERGPWDTDEIYKNMCSEVIKKHIPLKSA

- binding [2]: binds
B2: LUBEL-RBR-C, recombinant (domain or fragment, UniProt Q8IPJ3-1 2512-2892)
chain: B1 chain
